Our source for the binding values is article doi:10.1101/2023.08.31.555722.

No constants are given. Whether binding was seen depends on the method and setting. In cells and extracts the contact can be indirect. Some binding calls cover weakened binding; strength is not graded here. Where a sequence is shown, tags or fusion partners need not be part of it.

One experiment deals with T1, Vps39-FLAG (human) (UniProt Q96JC1).
T1 sequence: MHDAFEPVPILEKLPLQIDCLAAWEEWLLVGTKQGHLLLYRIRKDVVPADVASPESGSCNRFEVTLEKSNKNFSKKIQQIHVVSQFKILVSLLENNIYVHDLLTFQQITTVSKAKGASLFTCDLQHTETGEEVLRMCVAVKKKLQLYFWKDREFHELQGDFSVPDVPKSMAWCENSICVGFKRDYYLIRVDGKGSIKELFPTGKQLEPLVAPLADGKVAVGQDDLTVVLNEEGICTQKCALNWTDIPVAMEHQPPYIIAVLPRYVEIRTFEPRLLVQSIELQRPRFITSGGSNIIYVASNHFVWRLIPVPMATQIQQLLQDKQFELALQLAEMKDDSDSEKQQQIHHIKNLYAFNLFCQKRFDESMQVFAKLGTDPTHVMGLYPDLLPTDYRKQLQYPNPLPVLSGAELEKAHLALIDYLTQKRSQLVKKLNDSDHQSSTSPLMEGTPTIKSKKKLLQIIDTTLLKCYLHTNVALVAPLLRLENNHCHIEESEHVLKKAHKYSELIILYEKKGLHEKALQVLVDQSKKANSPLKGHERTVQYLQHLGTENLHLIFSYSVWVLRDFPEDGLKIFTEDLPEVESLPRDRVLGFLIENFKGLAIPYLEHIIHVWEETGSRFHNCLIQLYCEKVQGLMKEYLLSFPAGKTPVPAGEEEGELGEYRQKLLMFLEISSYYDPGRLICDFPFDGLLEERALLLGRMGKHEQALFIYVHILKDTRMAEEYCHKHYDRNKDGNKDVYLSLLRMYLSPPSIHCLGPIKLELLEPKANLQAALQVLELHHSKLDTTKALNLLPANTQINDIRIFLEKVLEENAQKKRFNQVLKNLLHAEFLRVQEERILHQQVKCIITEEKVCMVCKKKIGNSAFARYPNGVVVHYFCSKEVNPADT
In words: co-IP.

The target of the next experiment is T2, Vps41-FLAG (human) (UniProt P49754).
T2 sequence: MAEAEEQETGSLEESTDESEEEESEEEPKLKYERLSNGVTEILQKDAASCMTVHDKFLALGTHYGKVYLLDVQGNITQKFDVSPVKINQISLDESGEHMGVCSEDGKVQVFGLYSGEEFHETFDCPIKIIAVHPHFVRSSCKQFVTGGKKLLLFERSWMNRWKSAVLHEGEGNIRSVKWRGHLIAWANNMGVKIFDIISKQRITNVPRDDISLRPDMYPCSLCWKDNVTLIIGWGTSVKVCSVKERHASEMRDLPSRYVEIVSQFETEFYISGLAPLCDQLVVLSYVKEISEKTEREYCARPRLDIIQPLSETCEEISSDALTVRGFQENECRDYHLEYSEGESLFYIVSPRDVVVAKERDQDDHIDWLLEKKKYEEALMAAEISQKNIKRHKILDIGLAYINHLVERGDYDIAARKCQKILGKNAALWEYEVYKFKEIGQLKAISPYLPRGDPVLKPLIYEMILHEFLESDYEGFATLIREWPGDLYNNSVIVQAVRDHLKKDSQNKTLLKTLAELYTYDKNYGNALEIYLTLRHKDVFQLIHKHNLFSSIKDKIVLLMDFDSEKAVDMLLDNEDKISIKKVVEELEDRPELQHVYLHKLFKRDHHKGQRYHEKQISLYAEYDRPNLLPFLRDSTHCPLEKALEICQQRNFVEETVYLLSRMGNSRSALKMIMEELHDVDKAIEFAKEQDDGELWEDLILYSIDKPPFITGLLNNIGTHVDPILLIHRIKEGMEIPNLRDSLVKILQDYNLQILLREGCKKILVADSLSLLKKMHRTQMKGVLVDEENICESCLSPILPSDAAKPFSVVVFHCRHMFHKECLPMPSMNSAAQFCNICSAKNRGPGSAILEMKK
In words: co-IP.

B1: Vps11 (protein, UniProt Q9H270 1-941)
chain: MAAYLQWRRFVFFDKELVKEPLSNDGAAPGATPASGSAASKFLCLPPGITVCDSGRGSLVFGDMEGQIWFLPRSLQLTGFQAYKLRVTHLYQLKQHNILASVGEDEEGINPLVKIWNLEKRDGGNPLCTRIFPAIPGTEPTVVSCLTVHENLNFMAIGFTDGSVTLNKGDITRDRHSKTQILHKGNYPVTGLAFRQAGKTTHLFVVTTENVQSYIVSGKDYPRVELDTHGCGLRCSALSDPSQDLQFIVAGDECVYLYQPDERGPCFAFEGHKLIAHWFRGYLIIVSRDRKVSPKSEFTSRDSQSSDKQILNIYDLCNKFIAYSTVFEDVVDVLAEWGSLYVLTRDGRVHALQEKDTQTKLEMLFKKNLFEMAINLAKSQHLDSDGLAQIFMQYGDHLYSKGNHDGAVQQYIRTIGKLEPSYVIRKFLDAQRIHNLTAYLQTLHRQSLANADHTTLLLNCYTKLKDSSKLEEFIKKKSESEVHFDVETAIKVLRQAGYYSHALYLAENHAHHEWYLKIQLEDIKNYQEALRYIGKLPFEQAESNMKRYGKILMHHIPEQTTQLLKGLCTDYRPSLEGRSDREAPGCRANSEEFIPIFANNPRELKAFLEHMSEVQPDSPQGIYDTLLELRLQNWAHEKDPQVKEKLHAEAISLLKSGRFCDVFDKALVLCQMHDFQDGVLYLYEQGKLFQQIMHYHMQHEQYRQVISVCERHGEQDPSLWEQALSYFARKEEDCKEYVAAVLKHIENKNLMPPLLVVQTLAHNSTATLSVIRDYLVQKLQKQSQQIAQDELRVRRYREETTRIRQEIQELKASPKIFQKTKCSICNSALELPSVHFLCGHSFHQHCFESYSESDADCPTCLPENRKVMDMIRAQEQKRDLHDQFQHQLKCSNDSFSVIADYFGRGVFNKLTLLTDPPTARLTSSLEAGLQRDLLMHSRRGT
As to B1, the binding entry in the experiment with Vps39-FLAG (human) and with Vps41-FLAG (human) was “binds” each time.

B2: Vps18 (protein, UniProt Q9P253 1-973)
chain: MASILDEYENSLSRSAVLQPGCPSVGIPHSGYVNAQLEKEVPIFTKQRIDFTPSERITSLVVSSNQLCMSLGKDTLLRIDLGKANEPNHVELGRKDDAKVHKMFLDHTGSHLLIALSSTEVLYVNRNGQKVRPLARWKGQLVESVGWNKALGTESSTGPILVGTAQGHIFEAELSASEGGLFGPAPDLYFRPLYVLNEEGGPAPVCSLEAERGPDGRSFVIATTRQRLFQFIGRAAEGAEAQGFSGLFAAYTDHPPPFREFPSNLGYSELAFYTPKLRSAPRAFAWMMGDGVLYGALDCGRPDSLLSEERVWEYPEGVGPGASPPLAIVLTQFHFLLLLADRVEAVCTLTGQVVLRDHFLEKFGPLKHMVKDSSTGQLWAYTERAVFRYHVQREARDVWRTYLDMNRFDLAKEYCRERPDCLDTVLAREADFCFRQRRYLESARCYALTQSYFEEIALKFLEARQEEALAEFLQRKLASLKPAERTQATLLTTWLTELYLSRLGALQGDPEALTLYRETKECFRTFLSSPRHKEWLFASRASIHELLASHGDTEHMVYFAVIMQDYERVVAYHCQHEAYEEALAVLARHRDPQLFYKFSPILIRHIPRQLVDAWIEMGSRLDARQLIPALVNYSQGGEVQQVSQAIRYMEFCVNVLGETEQAIHNYLLSLYARGRPDSLLAYLEQAGASPHRVHYDLKYALRLCAEHGHHRACVHVYKVLELYEEAVDLALQVDVDLAKQCADLPEEDEELRKKLWLKIARHVVQEEEDVQTAMACLASCPLLKIEDVLPFFPDFVTIDHFKEAICSSLKAYNHHIQELQREMEEATASAQRIRRDLQELRGRYGTVEPQDKCATCDFPLLNRPFYLFLCGHMFHADCLLQAVRPGLPAYKQARLEELQRKLGAAPPPAKGSARAKEAEGGAATAGPSREQLKADLDELVAAECVYCGELMIRSIDRPFIDPQRYEEEQLSWL
As for B2, the binding entry with Vps39-FLAG (human) and with Vps41-FLAG (human) was “binds” throughout.
